Among all 340,000 compounds or so, about 4,500 (1.3%) were called active. This list was built around the results that the source calls inconclusive (neither active nor inactive); the mix of calls is not that of the screen. The call rests on the fitted dose curve; in most records, active means well fitted inhibition curve with a large enough effect; inconclusive means small, poorly fitted or top-dose-only effect, or another doubt; inactive means no such curve, though single readings can be large or run the other way. Potencies beside an inconclusive call are fits to weak or partial responses and may not hold up.
Biological target: DNA polymerase beta (Homo sapiens) (UniProt P06746)
Test: qHTS Assay for Inhibitors of DNA Polymerase Beta
Settings: Pol beta primer extension/strand displacement, fluorescence kinetic; activity change, negative = inhibition: at 114 µM (top of the series)
Method in brief: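 Values derive from four-parameter Hill fits of normalized kinetic data: reads at 0 and 10 min following addition of 50 nM substrate to 10 nM Pol beta preincubated 15 min with compound.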
On the % scale 0 is the no-effect control and ±100 the full control effect; potency means the concentration at half of the fitted maximal effect.

Potency, inactive:
COc1ccc(NC(=O)C2CC(=O)N/C(=N/N=C/c3ccco3)S2)cc1 (stereo not given)
CCOC(=O)c1c(C)oc2ccc(N(C(=O)Oc3ccccc3)S(=O)(=O)c3ccc(CC)cc3)cc12
O=C(Nc1cc(Cl)cc(Cl)c1)c1ccc(F)c(S(=O)(=O)N2CCc3ccccc32)c1
COc1ccc(CNC(=O)c2ccc(N3CCCC3)c(NC(=O)NCc3ccc(C)cc3)c2)cc1
Cc1cc(CN(C)C(=O)c2ccc3nc(Cc4ccccc4F)oc3c2)on1
CC(=O)Nc1cc(OC(C)=O)c2nonc2c1OC(C)=O
Cc1cc(C)n2nc(SCc3ccc(C#N)cc3)nc2n1
CCn1c(=O)sc2cc(NS(=O)(=O)c3ccc(F)c(C)c3)ccc21
COc1cc(C(=S)N2CCCCC2)ccc1O
CCN(c1ccccc1)c1nnc(NC(=O)Nc2ccc(Br)cc2)s1
O=C1Nc2ccccc2C1(O)c1ccccc1O (stereo not given)
O=C1C=C(Nc2ccccc2O)c2ccccc2C1=O
CCOC(=O)C1=C(C)NC(=O)NC1c1ccc(Br)o1 (stereo not given)
O=C(COc1ccccc1Cl)Nc1cc(-c2ccccc2F)nn1-c1ccccc1
COc1ccccc1NC(c1ccc(Cl)cc1)c1nnc(-c2cccc(F)c2)o1 (stereo not given)
O=C(Cn1c(SCc2cccc(F)c2)nc2cccnc21)Nc1ccc(F)c(Cl)c1
COc1ccc(OC)c(NC(=O)c2cc3c(n(-c4ccc(Cl)cc4)c2=O)CC(C)(C)CC3=O)c1

Among those listed so far, these have a furan ring, fused or not:
Potency, inactive:
COc1ccc(NC(=O)C2CC(=O)N/C(=N/N=C/c3ccco3)S2)cc1 (stereo not given)
CCOC(=O)c1c(C)oc2ccc(N(C(=O)Oc3ccccc3)S(=O)(=O)c3ccc(CC)cc3)cc12
CCOC(=O)C1=C(C)NC(=O)NC1c1ccc(Br)o1 (stereo not given)

Following part:

Potency, inconclusive:
Cc1ccc(CCC(=O)Nc2ccc(C#N)cc2)o1 0.141 µM [inhibitor, full curve, poor fit]
Cc1cc(OC(C)C(=O)NCCc2c[nH]c3ccccc23)c2c(C)cc(=O)oc2c1 (stereo not given) 89.1 µM [inhibitor, single point]
CCCn1c(NCc2cc(C)ccc2O)nc2ccccc21 44.7 µM [inhibitor, partial curve, poor fit]
CCCn1c(SCC(=O)NC(=O)Nc2ccc(C)cc2C)n[nH]c1=O 15.8 µM [inhibitor, partial curve]
N#Cc1c(N)n(CCNC(=O)c2ccccc2)c2nc3ccccc3nc12 89.1 µM [inhibitor, single point]
COc1cccc(Cn2cc(/C=N/NC(=O)c3cc(O)cc(O)c3)c3ccccc32)c1 12.6 µM [inhibitor, full curve, poor fit]
Cc1nn2c(-c3cccc(NC(=O)c4ccccc4)c3)nnc2c2ccccc12 4.47 µM [inhibitor, single point]
O=S(=O)(Nc1nc2n(n1)C(c1ccc(F)cc1)C=C(c1ccccc1)N2)c1ccccc1 (stereo not given) 100 µM [inhibitor, single point]
Cc1ccc(S(=O)(=O)/N=C2/C=C(C3C(=O)CC(C)(C)CC3=O)C(=O)c3ccccc32)cc1 28.2 µM [inhibitor, partial curve]
O=C(O)c1[nH]c2ccccc2c1C(c1ccccc1)c1c(C(=O)O)[nH]c2ccccc12 63.1 µM [inhibitor, single point]
CCOC(=O)c1c(C)[nH]c(C)c1S(=O)(=O)N1CCC(C(=O)N2CCN(c3ccccc3F)CC2)CC1 100 µM [inhibitor, single point]
Cc1ccc(-n2c(SCc3cccc(F)c3)nc3[nH]ncc3c2=O)cc1C 89.1 µM [inhibitor, single point]
COc1ccc(C2CC(=O)c3cc(-c4nc(-c5ccc(Cl)cc5)c(C)s4)c(=O)[nH]c3C2)cc1 (stereo not given) 89.1 µM [inhibitor, single point]
COc1cc(OC)c(OC)cc1/C=C/c1nc2cc3ccccc3cc2c(=O)n1-c1ccc(F)cc1F 89.1 µM [inhibitor, single point]
CN1CCN(C(=S)NC(=O)/C=C/c2ccccc2Cl)CC1 56.2 µM [inhibitor, single point]
CCOc1ccccc1NC(=O)Cn1nnc(C(=O)Nc2ccc(C)cc2)c1N 63.1 µM [inhibitor, single point]
COc1c2c(c(C)c3c1C(=O)OC3)O[C@@]1(C)CC[C@@]3(O)C(C)(C)OC(=O)CC[C@]3(C)[C@H]1C2 39.8 µM [inhibitor, partial curve]
Cc1ccc(NC(=O)CSCC(=O)Nc2ncc3c(n2)CC(c2ccco2)CC3=O)cc1 (stereo not given) 44.7 µM [inhibitor, partial curve]
CC(C)(Oc1ccc(Cl)cc1)C(=O)NCc1ccc(S(N)(=O)=O)cc1 25.1 µM [inhibitor, full curve]
CSc1nnc(NC(=O)c2ccc(S(=O)(=O)N(C)C)cc2)s1 0.112 µM [inhibitor, full curve, poor fit]
CCc1cc2c(COC(=O)c3cccc(NS(C)(=O)=O)c3)cc(=O)oc2cc1O 22.4 µM [inhibitor, full curve]
O=C(CCn1ccc([N+](=O)[O-])n1)NC1CCCCCC1 89.1 µM [inhibitor, single point]
O=C(N/N=C/c1ccccc1[N+](=O)[O-])c1cccs1 50.1 µM [inhibitor, single point]
CC(CC(=O)O)CC(=O)Nc1cccc([N+](=O)[O-])c1 (stereo not given) 79.4 µM [inhibitor, single point]
O=C(c1ccoc1)N1CCC2(CC1)Oc1ccc(Cl)cc1C(=O)C21CC(c2ccc(Cl)cc2)=NO1 (stereo not given) 0.251 µM [inhibitor, full curve]
COc1ccc(Cc2n[nH]c(=S)n2N)cc1OC 100 µM [inhibitor, single point]
O=C(OCCCOc1ccc(F)cc1)c1ccc(O)cc1O 89.1 µM [inhibitor, single point]
COc1ccc(/C=N/NC(=O)c2cccc(C(F)(F)F)c2)cc1 22.4 µM [inhibitor, full curve]
CN1CCN(C2=Cc3ccccc3Sc3cc(F)ccc32)CC1 79.4 µM [inhibitor, single point]
O=C(NC1CC1)c1cccc(Nc2ccc(-c3ccc4c(c3)OCCO4)nn2)c1 39.8 µM [inhibitor, partial curve, poor fit]
CCOC(=O)C1(Cc2ccc(Cl)cc2)CCN(C2CCC2)CC1 89.1 µM [inhibitor, single point]
O=C(COc1ccc2ccccc2c1)NNC(=O)Nc1ccc(F)cc1F 79.4 µM [inhibitor, single point]
Cc1ccc(OCC(=O)NC(=S)Nc2ccc(S(=O)(=O)Nc3cc(C)on3)cc2)c(Br)c1 22.4 µM [inhibitor, full curve, poor fit]
O=C(CS(=O)(=O)c1ccccc1)N1CCCCCC1 39.8 µM [inhibitor, partial curve]
CNC(=S)N1CCN(c2ccccn2)CC1 89.1 µM [inhibitor, single point]
Cc1cccc(C(=O)Oc2cccc3c(O)cccc23)c1 100 µM [inhibitor, single point]

Random excerpt: 2 compounds from above, in no set order.
Potency, inconclusive:
COc1ccc(Cc2n[nH]c(=S)n2N)cc1OC 100 µM [inhibitor, single point]
O=C(O)c1[nH]c2ccccc2c1C(c1ccccc1)c1c(C(=O)O)[nH]c2ccccc12 63.1 µM [inhibitor, single point]

Following part.

Potency, active:
O=C(O)CN1C(=O)/C(=C\c2cc(Br)ccc2OCc2ccccc2Cl)SC1=S 31.6 µM
C=CCNC(=O)/C(=C\c1ccc(Br)cc1)NC(=O)c1ccccc1OC 0.141 µM
CCCc1nc2sc3ccccc3c(=O)c2c(=O)n1Cc1ccco1 50.1 µM
O=C(NC(=S)Nc1ccc(Cl)c(C(=O)O)c1)c1cccc(COc2ccccc2)c1 39.8 µM
COc1ccc(C(=O)CCC(=O)Nc2cc(Cl)c(O)c(Cl)c2)cc1 28.2 µM
COc1ccc(NC(=O)CSc2nc(NS(=O)(=O)c3ccc(C)cc3)cc(=O)[nH]2)cc1 17.8 µM
CC(C)CCNC(=O)c1c[nH]c2ccc(S(=O)(=O)N3CCC4(CC3)OCCO4)cc2c1=O 35.5 µM
CC1(OC(=O)c2ccc(Cl)nc2)C(=O)C=C2C=C3CCCN3C=C2C1=O (stereo not given) 25.1 µM
Cc1ccccc1N1CC(C(=O)Nc2nnc(SCC(=O)Nc3nccs3)s2)CC1=O (stereo not given) 50.1 µM
COc1ccc(C(CC(=O)N2CCOCC2)c2c(OC)cc(OC)c3c(-c4ccccc4)cc(=O)oc23)cc1 (stereo not given) 35.5 µM
O=C(Nc1ccc2oc(=O)ccc2c1)c1ccc(-c2cccc([N+](=O)[O-])c2)o1 2.82 µM
O=C(NC(=O)c1ccc(Cl)c(Cl)c1)OC1CCS(=O)(=O)C1 (stereo not given) 89.1 µM

Activity change, negative = inhibition, inconclusive:
CCCc1cc(=O)n(-c2nc3ccccc3s2)[nH]1 -39.2% [inhibitor]
O=C(COc1ccccc1Cl)Nc1ccc(NC(=O)c2ccco2)cc1 -64% [inhibitor]
O=c1[nH]c(C2CCN(S(=O)(=O)c3cccc(Cl)c3)CC2)nc2c1nnn2Cc1ccccc1 -41.2% [inhibitor]
Cc1ccc(OCC(=O)Nc2nnc(S(=O)(=O)N3CCCCC3)s2)cc1 -84.4% [inhibitor]
CCc1nn2c(=O)cc(COc3ccc(/C=C4\C(=N)N5N=C(CC(C)C)SC5=NC4=O)cc3)nc2s1 -135% [inhibitor]

Source: PubChem BioAssay AID485314 (National Center for Advancing Translational Sciences (NCATS), 2010)
